Values from PubChem BioAssay AID1259308 (NCATS, 2017).

Assay: 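Knock-downs that increase output of a recombinant reporter protein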 (primary screen)
Cell system: human HEK293 embryonic kidney cells stably expressing firefly luciferase (HEK-CMV-Luc2-Hygro)
Reagents: single siRNA against human genes, 0.8 pmol siRNA per well
Time to read-out: 72 h
Read-out: 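Reporter luminescence and viable-cell signal on separate replicate plates, given as percent of non-targeting control and median/MAD z-scores, plus per-cell luciferase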
Scale: total luciferase, z-score and total luciferase, % of control: higher = more reporter protein produced
Rule for the call: 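Active when the median/MAD z-score for overall luciferase is greater than 3; a gene was taken forward for validation with new siRNAs if at least two of its three siRNAs passed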
Meaning of the calls: active = raised luciferase; inactive = no rise
Here is one part, drawn at random, of about 59,000 reagents. Of all reagents, about 1,510 (2.6%) got an active call. 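Calls use total luciferase alone and ignore viability, so some active siRNAs may act by altering cell number.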 Reagents against one gene are numbered here. Further read-outs or replicates are left out here.

target | reagent no. | total luciferase, z-score | total luciferase, % of control | Outcome
SDCCAG8 (GeneID 10806) | 1 | 2.49 | 131 | inactive
SDCCAG8 (GeneID 10806) | 2 | -0.382 | 74.3 | inactive
SDCCAG8 (GeneID 10806) | 3 | 1.46 | 111 | inactive
EP400 (GeneID 57634) | 1 | 3.09 | 143 | active
EP400 (GeneID 57634) | 2 | 0.922 | 100 | inactive
EP400 (GeneID 57634) | 3 | 2.57 | 133 | inactive
MRPL16 (GeneID 54948) | 1 | -1.29 | 56.3 | inactive
MRPL16 (GeneID 54948) | 2 | 1.23 | 106 | inactive
MRPL16 (GeneID 54948) | 3 | -1.32 | 55.6 | inactive
DEAF1 (GeneID 10522) | 1 | -0.795 | 66.1 | inactive
DEAF1 (GeneID 10522) | 2 | 1.09 | 104 | inactive
DEAF1 (GeneID 10522) | 3 | -0.166 | 78.6 | inactive
TMEM253 (GeneID 643382) | 1 | 0.0985 | 83.8 | inactive
TMEM253 (GeneID 643382) | 2 | 0.407 | 90 | inactive
TMEM253 (GeneID 643382) | 3 | 0.433 | 90.5 | inactive
SLC25A10 (GeneID 1468) | 1 | -0.444 | 73.1 | inactive
SLC25A10 (GeneID 1468) | 2 | 0.768 | 97.2 | inactive
SLC25A10 (GeneID 1468) | 3 | 0.856 | 98.9 | inactive
ASZ1 (GeneID 136991) | 1 | 1.97 | 121 | inactive
ASZ1 (GeneID 136991) | 2 | 0.171 | 85.3 | inactive
ASZ1 (GeneID 136991) | 3 | 0.3 | 87.9 | inactive
RGS17 (GeneID 26575) | 1 | 3.64 | 154 | active
RGS17 (GeneID 26575) | 2 | -0.0616 | 80.7 | inactive
RGS17 (GeneID 26575) | 3 | -0.112 | 79.7 | inactive

Next part, starting with the last 2 of the part before.
target | reagent no. | total luciferase, z-score | total luciferase, % of control | Outcome
RGS17 (GeneID 26575) | 2 | -0.0616 | 80.7 | inactive
RGS17 (GeneID 26575) | 3 | -0.112 | 79.7 | inactive
IFIT1B (GeneID 439996) | 1 | 1.8 | 118 | inactive
IFIT1B (GeneID 439996) | 2 | 1.85 | 119 | inactive
IFIT1B (GeneID 439996) | 3 | 1.92 | 120 | inactive
ZCWPW1 (GeneID 55063) | 1 | -0.191 | 78.1 | inactive
ZCWPW1 (GeneID 55063) | 2 | 0.258 | 87 | inactive
ZCWPW1 (GeneID 55063) | 3 | -0.242 | 77.1 | inactive
SPANXN5 (GeneID 494197) | 1 | -0.464 | 72.6 | inactive
SPANXN5 (GeneID 494197) | 2 | -0.11 | 79.7 | inactive
SPANXN5 (GeneID 494197) | 3 | 0.239 | 86.6 | inactive
ZNF106 (GeneID 64397) | 1 | 1.07 | 103 | inactive
ZNF106 (GeneID 64397) | 2 | 0.71 | 96 | inactive
ZNF106 (GeneID 64397) | 3 | 0.246 | 86.8 | inactive
CASTOR1 (GeneID 652968) | 1 | -0.496 | 72 | inactive
CASTOR1 (GeneID 652968) | 2 | -1.7 | 48 | inactive
CASTOR1 (GeneID 652968) | 3 | -2.15 | 39.1 | inactive
